Values of other authors, collected in US7012098B2, “Inhibitors of inducible nitric oxide synthase for chemoprevention and treatment of cancers” (Pharmacia Corporation, priority 2001, dated 2006).
For at least one compound, name, drawing or mass did not settle the structure.

Tested on: azoxymethane-induced colonic aberrant crypt foci
Details: in vivo; cited from earlier work

Cc1ccc(-c2cc(C(F)(F)F)nn2-c2ccc(S(N)(=O)=O)cc2)cc1 [Celecoxib, celecoxib]
colon tumor formation: inhibit
induction of the colonic aberrant crypt foci (ACF) by azoxymethane: suppress
